Consider seven molecules from article doi:10.1101/2024.03.04.583404.

No constants are given. Whether binding was seen depends on the method and setting. Binding seen in cells or lysates may run through a third protein. A yes stands for co-enrichment or nearness to the bait. Other partners may have been found. Where a sequence is shown, tags or fusion partners need not be part of it.

First the molecules themselves.
T1: DCAP-2::3XFLAG (C. elegans (endogenous in embryos)) (UniProt O62255)
T1 sequence: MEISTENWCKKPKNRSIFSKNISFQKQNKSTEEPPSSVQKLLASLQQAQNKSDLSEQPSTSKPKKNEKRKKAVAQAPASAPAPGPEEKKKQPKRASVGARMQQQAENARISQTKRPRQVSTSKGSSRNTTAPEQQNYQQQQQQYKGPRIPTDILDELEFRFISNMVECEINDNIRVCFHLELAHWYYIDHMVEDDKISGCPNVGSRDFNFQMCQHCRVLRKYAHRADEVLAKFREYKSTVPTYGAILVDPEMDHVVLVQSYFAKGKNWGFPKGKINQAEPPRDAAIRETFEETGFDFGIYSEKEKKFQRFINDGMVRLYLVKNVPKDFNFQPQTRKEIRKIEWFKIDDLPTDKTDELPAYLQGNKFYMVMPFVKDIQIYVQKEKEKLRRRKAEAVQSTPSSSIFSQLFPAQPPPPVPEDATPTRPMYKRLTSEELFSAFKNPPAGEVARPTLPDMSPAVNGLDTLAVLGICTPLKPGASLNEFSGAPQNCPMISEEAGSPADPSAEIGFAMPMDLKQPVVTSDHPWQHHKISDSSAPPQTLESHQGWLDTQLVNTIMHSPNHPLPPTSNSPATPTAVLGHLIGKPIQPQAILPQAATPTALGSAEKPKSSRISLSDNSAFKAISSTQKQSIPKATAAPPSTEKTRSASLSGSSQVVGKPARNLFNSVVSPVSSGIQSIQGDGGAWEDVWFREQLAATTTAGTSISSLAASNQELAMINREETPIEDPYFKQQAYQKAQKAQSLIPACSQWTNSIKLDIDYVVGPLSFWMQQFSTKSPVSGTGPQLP

B1: DEPS-1 (protein, UniProt Q9N303 1-619)
chain: MSERQSKYFDYQGIVISSTGQDNQDSETDLVYLIQAHGKAAPKNIMYGVSKCAFVPTNLERNFDNIEEAKNLERRSKIPLKFGEVILWNESDCDHDKRIILHIKREKPIYEASSSRNGLILKVGGVIQPTSTTSFWTPLCTVTMPETEATRAEPDVWLYAWIRFETTMKSGLDPFNMTATFESFDSCDPSDQARVCEAPWNAGSPDSKFGVWRPDPKPADSDDEIDIEPREGWHLPEDKWAEVIKMQLGLYVGERLLICKELSQFDFIIPLQKPFSRGTDKTLIYPAVGEYFHFSAIWSMQHNGFLIYELQPVPLLRQHVTSVNGNLLTRVVPASIRGLFVDKEGTLGLIDDPHHLLSFFEFHPAGYEFLKAMAEVRAVRTSENKSVRYRIVRTSGMSIFENWLRDTQFVVGPVKGIRINEDTVICAKHPNVYFKIPNNLKEGIPIGGGVQFVGKRQAGVDSEIMITECSPCPAFTCKNYSVSGDTRLFQVYLKPNCDHEQLAESDSMGFVDFRELETPCRGKFLAWVRESITVNDCRRAATIMEVCSTAICPPLIAMSANSSRATSARTTPAGSSIGSRSSIQSRASAATSVSSNRFVGPSSRRTPSGTPQSSTSSRV
B2: EIF-3.K (protein, UniProt Q9XUP3 1-240)
chain: MSFEKLQKELHEAIEGVNRYNPENVADLAACVQAMVNENKYDKDIVLTILKLYQLNPEKYDEAVVRQVLLKTLMVLPSSDFALAKCLIDTNRLGSQELRRIFDLGAVLESCNFAVFWKLVKGAYKPTTNPNEPFKVPGEVPKMIKPMVGFEDAVKHYACRVISVTFQKIEKKMLSRLLGGASDKEVTALAQSFGWEAKENGDVFFVANHEGTIKTRNIDEKIQFPHVADLLTSIQPPLTL
B3: EIF-3.E (protein, UniProt O61820 1-432)
chain: MSTFDLTQRMAPFLDLHLIIPLLEFIEPRGIYDEKSLTEMHRQLLTKTNMIDSVIETYNGKPIPAAIEAKKKQIIKERDELKSKVDSVVAILEIPEVKEMMDNNRERDGNVRILEHLTQNHNFTVDMVDTLFKYSKFMYECGNYTVASVCLYYYRNLVNQADPNYLNALYGKLASEILLQEWEHARDDLLKLRAYIDANPFDTEWELVTQRAWLMHWALFVYYNYPKGRDEIIEMFLNQQPYLNAIQVLAPHLLRYLAVAVVTSKSRQKNSLKDLVKVIDIERHSYKDPVTDFLTCLYIKYDFDEAQEMLQKCEEVLSNDFFLTAVLGDFRESARLLIFEMFCRIHQCITIEMLARRLNMSQEEAERWIVDLIRTYRIEGAKIDSKLGQVVMGVKSVSIHEQVMENTKRLTLRAQQIALQLEKGRQDKVKAT
B4: EIF-3.A (protein, UniProt P34339 1-1076)
chain: MAPNYFQKPEAALKRAEELIQVGKESDALDTLHDTIKARRHKQWTTVHEQIMIKHMELCVDLKKQHLAKDALFQYKALTQQINVKSLETVVVHFLKLAEQRTEDAQKQSIEKVEEIGDLDQGDVPERLLLAVVSGAAAQDRMDRTVLAPWLRFLWDSYRNCLELLRNNAQVEQLYHTISRHSFTFCLRYQRRTEFRKLCDLLRMHLNQIQKHQYAPNVNSFRVKLTSPESLGLMQDTRLIQLDTAIQMELWQEAYKSAEDVHGMMQLSKDKDKRTVKPASYVNYYDKLALVFWKAGNSLFHAAALLQKFIIYKDMKKSFTQDEAQEQATRVLLATLSIPEGSDSPSDLSRNLDIEDQHVANMRLLSNLLRLPIAPTKNGILKEAARIGVPEAAGQTAKDLYKLLESNFSPLKVAKDVQSVLDTVTRPDHLQYVESLQAVAAVKALKQVSVIYEAISWERIRKIIPFYSDLALERLVVEASKHRIVKAQLDHRADCVRFGSSDATLAGGVDECDNNEGFTGDDTQLGVEGVRNHLEAMYTRLRGLVEGLDAEKRRKEILKKIEGQVTSYEKNRPTEIERIHRRKKMLENYKENWERVKAEKTAAAATEQAKREEAARAEEMKRLDEQNKESERKRKQAEQDEIQKKIKQDQLYKMQQNAIYQEIIKEKGLEQFRDMDPEQVLREQRERLDKERAETQRRLQQQEKNFDHHVRALHLEELNERRAVMNMRLSEAPKLHDLYEEARIAKEIAAHDSHVKLWGMWDQVRDATFDWVESVKIDNQETLEKKLSDWQAKLEAVRNNRLAERAEDRKKKRKEDAIQAKIAEERKKREEEERARLQVIEGQRRQHNDGRGRREMENSVAMQDNDWRRNPPRESLPPRETRPMRDGPTREPREFRGDRDREPREPFREVPSSKADTDNSWRSSAQPTRKPDDRRSDEFRRNDDVRRNDDVRRNDPPRPASKADTGDKWERGVKPVVSPPKTDAPSVSEPKSEGPKRFVPPHLRNRQGGGGAGGSEEQSAPARSGNSNVTSPPDRAQGLRGPPPTGRNSLPRRDGPPPRSNNTGNTGNADSGSWRK
B5: CAR-1 (protein, UniProt Q9XW17 1-340)
chain: MSNQTPYIGSKISLISKLDIRYEGILYTVDTNDSTIALAKVRSFGTEKRPTANPVAARDDVYEYIIFKASDIKDLIVCDTPKMANIGGGLPYDPAIISVSSRSAPASDGAPAASAGSSRAGTPSRNSPLGQIIQNQRPGRGGYQQNFQANRGYNNYRGGFAGGYNNQRGHNNYGVPRVNHREKLKFESDFDFEKANEKFQEVLVDNLEKLNIEDKAEPEVEEKKDAAFYDKKTSFFDNISCESLEKAEGKTGRPDWKKERETNQETFGHNAVRSLNYRRGFGGRGRGGNRGYGGYNNGYQHQHQHRGGYNGGYRQNNGGYRRGGYAPRDNQGNTAAAAEQ
B6: CGH-1 (protein, UniProt Q95YF3 1-430)
chain: MSGAEQQQIVPANNGDENWKAGLNLPAKDRRFKTADVTDTKGVEFEDFCLGRDLLMGIFEKGWEKPSPIQEASIGVALTGQDILARAKNGTGKTGAYCIPVIEKIQPALKAIQAMVIVPTRELALQTSQICVELSKHIQLKVMVTTGGTDLRDDIMRLNGTVHLVIATPGRILDLMEKGVAKMEHCKTLVLDEADKLLSQDFQGILDRLINFLPKERQVMLYSATFPNTVTSFMQKHMHKPYEINLMEELTLLGVTQYYAFVQEKQKVHCLNTLFRKLQINQSIIFCNSTQRVELLAKKITEIGYSCYYIHSKMAQNHRNRVFHDFRQGNCRNLVCSDLLTRGIDIQAVNVVINFDFPRNAETYLHRIGRSGRFGHLGVAINLITYEDRHTLRRIEQELRTRIEPIPKTVDPKLYVADQQLVDAADETTA
B7: EIF-3.I (protein, UniProt Q965S8 1-327)
chain: MRPLSLKGHERALTRVRFNREGDLTFSCAKDKKPCVWYTENGERIGSYDGHNGAVWDIDVSWDTTKCVTASGDLTVKIWDAELGNCLYTINHQTPMKSCGFSYSGNLVCFTTQKMTKNLSTFQVRDLRDSSQMVEGGESFFYSQFDVNATTALFTQMDDLVTIGFESGLLQQYDLRNPDTPIHTNESVHRYSVQDLQLSPRGDFLISASRDKTAALLDVNDLKKLKQYKSERPVNSACISPNRDHICLGGGEDAMQVTQTSVSAGHFEAKIYHMVFEEEFARFKGHFGPINTMAWHPSGTIIATGGEDGYIRIQEFDEDYLGFTYDF

This experiment has as its target T1, DCAP-2::3XFLAG (C. elegans (endogenous in embryos)). Description: affinity purification with mass spectrometry.
As to B1, the binding result is recorded as “binds”.

Take B2: the binding result is reported as “binds”.

For B3, the binding entry is “binds”.

As for B4, the binding entry was “binds”.

Turning to B5, the binding result was “binds”.

As to B6, the binding result was “binds”.

On to B7, for which the binding entry is recorded as “binds”.
